The record followed here is article doi:10.1101/2020.03.02.974303.

By UniProt entry, the sequences of proteins in these tests, tags left out. Where a name states a change or a piece, a line headed by the entry shows the natural chain unless it says otherwise.
UniProt Q969H0, whole entry, looked up, stated change not applied: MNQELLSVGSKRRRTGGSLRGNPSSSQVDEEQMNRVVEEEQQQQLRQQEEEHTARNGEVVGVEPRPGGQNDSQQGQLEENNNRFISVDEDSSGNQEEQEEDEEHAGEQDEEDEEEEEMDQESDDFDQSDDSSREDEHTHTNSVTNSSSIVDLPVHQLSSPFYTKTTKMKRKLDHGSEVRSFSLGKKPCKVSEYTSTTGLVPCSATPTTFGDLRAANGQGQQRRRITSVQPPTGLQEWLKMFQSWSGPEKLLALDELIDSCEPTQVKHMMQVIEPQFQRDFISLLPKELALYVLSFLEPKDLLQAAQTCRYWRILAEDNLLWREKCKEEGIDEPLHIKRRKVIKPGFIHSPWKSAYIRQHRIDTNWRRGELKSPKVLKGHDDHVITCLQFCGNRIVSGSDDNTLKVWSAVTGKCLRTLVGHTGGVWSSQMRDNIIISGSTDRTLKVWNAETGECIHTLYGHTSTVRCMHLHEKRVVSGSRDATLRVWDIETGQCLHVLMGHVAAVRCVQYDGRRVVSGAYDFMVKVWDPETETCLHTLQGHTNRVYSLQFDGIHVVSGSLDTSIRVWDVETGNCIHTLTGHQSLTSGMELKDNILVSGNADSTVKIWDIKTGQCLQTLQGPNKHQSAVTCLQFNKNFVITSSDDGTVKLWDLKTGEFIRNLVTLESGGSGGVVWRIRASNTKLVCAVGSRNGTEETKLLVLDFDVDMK
UniProt P01106, whole entry: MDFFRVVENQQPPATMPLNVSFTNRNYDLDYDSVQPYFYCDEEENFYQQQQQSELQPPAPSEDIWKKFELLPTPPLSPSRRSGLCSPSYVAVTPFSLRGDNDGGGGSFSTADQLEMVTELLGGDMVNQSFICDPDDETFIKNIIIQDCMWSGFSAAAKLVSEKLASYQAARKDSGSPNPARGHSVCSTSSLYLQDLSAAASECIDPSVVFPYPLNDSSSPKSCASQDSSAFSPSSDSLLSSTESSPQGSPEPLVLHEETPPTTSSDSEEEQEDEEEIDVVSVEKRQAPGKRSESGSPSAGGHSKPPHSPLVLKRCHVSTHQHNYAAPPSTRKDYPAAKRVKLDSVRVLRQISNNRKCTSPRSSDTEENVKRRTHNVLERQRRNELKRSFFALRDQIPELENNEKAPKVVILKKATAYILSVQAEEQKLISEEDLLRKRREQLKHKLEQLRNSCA

This test deals with HA-FBW7ΔDF(d231-324) (UniProt Q969H0). Nature of the test: proximity ligation.

These are yes or no findings as the source states them, for the method shown. In cells and extracts the contact can be indirect. Some entries that bind do so weakly or less than the wild type.

Turning to c-Myc (from UniProt P01106 1-454), the binding entry was “binds”.
